Data taken from article PMC3437207.

Chains of the proteins cited; added tags and fusions are not shown. Lines headed by an entry give the natural chain unless they say otherwise; changes in a name come on top.
UniProt P23909: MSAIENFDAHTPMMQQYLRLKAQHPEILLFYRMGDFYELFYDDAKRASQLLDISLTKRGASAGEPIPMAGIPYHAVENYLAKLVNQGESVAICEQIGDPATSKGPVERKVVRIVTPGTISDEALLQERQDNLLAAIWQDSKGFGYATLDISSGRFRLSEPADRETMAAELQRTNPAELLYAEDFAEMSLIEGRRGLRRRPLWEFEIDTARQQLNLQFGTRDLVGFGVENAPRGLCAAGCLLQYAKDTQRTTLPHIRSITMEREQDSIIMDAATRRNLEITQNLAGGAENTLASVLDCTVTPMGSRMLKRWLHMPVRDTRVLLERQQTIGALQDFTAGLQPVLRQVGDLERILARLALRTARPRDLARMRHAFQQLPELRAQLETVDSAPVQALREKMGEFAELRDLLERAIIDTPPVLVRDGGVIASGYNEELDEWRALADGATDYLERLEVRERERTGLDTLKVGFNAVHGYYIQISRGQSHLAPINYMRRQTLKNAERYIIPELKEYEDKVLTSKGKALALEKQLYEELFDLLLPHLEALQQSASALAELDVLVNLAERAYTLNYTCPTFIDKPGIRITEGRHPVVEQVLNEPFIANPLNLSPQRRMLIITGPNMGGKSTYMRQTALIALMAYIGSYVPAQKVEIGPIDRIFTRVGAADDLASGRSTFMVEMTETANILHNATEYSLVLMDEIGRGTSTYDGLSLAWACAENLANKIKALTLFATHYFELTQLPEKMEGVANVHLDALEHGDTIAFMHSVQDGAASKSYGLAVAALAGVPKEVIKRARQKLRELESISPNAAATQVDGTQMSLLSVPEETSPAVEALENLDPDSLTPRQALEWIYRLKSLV

Target: MutS (Escherichia coli) (UniProt P23909)
Experiment: EMSA
Conditions: ATPgS above 250 uM, 60 nM MutS, heteroduplex completely free; 20 mM Tris pH 7.6, 5 mM MgCl2, 1 mM DTT, 50 ug/ml BSA, 10 mM KCl, 200 fmol homoduplex competitor, 10-20 fmol labeled DNA in 20 ul; recombinant protein; protein details: His; label: 5' 32P

## CTAGCAAGCTTTCGATTCTAGAAATTCGGC / GCCGAATTTCTAGAATTGAAAGCTTGCTAG [G-T mismatch heteroduplex]
  binding result: no binding

The exact form of at least one protein or probe is not confirmed. Negatives hold for the conditions tested.
